PubChem BioAssay AID1347076 (National Center for Advancing Translational Sciences (NCATS), 2019)
Screen size: about 400,000 compounds; about 13,000 (3.2%) were called active. Inconclusive means that the source gave no clear call. Such entries were picked first, then a sample of the others. The call rests on the fitted dose curve; in most records, active means well fitted cell-killing curve with a large enough effect; inconclusive means small, poorly fitted or top-dose-only effect, or effect the other way; inactive means flat fitted curve, though single readings scatter. Where the call is inconclusive, the potency comes from a doubtful curve fit.
Potency means the concentration at half of the fitted maximal effect.

Assay: qHTS assay for MDR1-selective chemotherapeutics: Primary screen using the drug-selected MDR subline cells KB-V1; further: nearly all actives have a fitted effect of over 60% in size
Conditions: KB-V1 MDR cells viability, CellTiter-Glo, 72 h; series mostly up to 46.1 µM
Method in brief: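 Following 72 h at 37 degrees C with compound, KB-V1 cell viability was read by CellTiter-Glo luminescence, medium being phenol-red-free DMEM plus 10% FBS; concentration-response parameters came from normalized, curve-fitted qHTS data.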
For CCCC(NC(=O)COc1cc2c(c3oc(=O)c(C)c(C)c13)CCC(C)(C)O2)C(=O)O (centres undefined), the Potency was inconclusive: 18.4 µM [rising, single point]. For Cc1ccc(NC(=O)NC(=O)CSc2nnnn2C)c(C)c1, the Potency was inconclusive: 29.1 µM [cytotoxic, single point]. For COc1ccc(-c2nc(CS(=O)CC(=O)NCc3ccc4c(c3)OCO4)c(C)o2)cc1 (centres undefined), the Potency was “inactive”. With CCOC(=O)c1sc2nc(CC(=O)OC)nc(N3CCN(c4ccc(OC)cc4)CC3)c2c1C the Potency was inconclusive: 20.6 µM [cytotoxic, single point]. With O=C(Cn1cnc2c(nnn2Cc2ccc(F)cc2)c1=O)N1CCN(c2ccccc2)CC1 the Potency was active: 9.2 µM. For O=[N+]([O-])c1cc(S(=O)(=O)/N=C(/c2ccccc2)N2CCOCC2)ccc1Cl, the Potency was “inactive”. With Cc1nc2cc(NCc3nc4ccccc4n3Cc3ccccc3)ccc2n1C the Potency was active: 10.3 µM. In the case of O=[N+]([O-])c1ccc(-c2nc(-c3cccs3)c(-c3cccs3)[nH]2)cc1, the Potency is reported as inconclusive: 29.1 µM [cytotoxic, single point]. For CC#CCN1c2ccccc2[C@]23C[C@@H](C(=O)OC)N(C(=O)NC(C)(C)C)C2=NC(C(=O)OC)=C(C(=O)OC)[C@H]13, the Potency was “inactive”. In the case of Cc1cc(=O)oc2c(C)c3occc3cc12, the Potency is reported as “inactive”. In the case of Cc1ccccc1CN1CCc2c(OCC(=O)N3CCCCC3)cccc2C1=O, the Potency is reported as inconclusive: 1.84 µM [cytotoxic, full curve]. With CCc1ccc2ncc(S(=O)(=O)c3ccc(C)c(C)c3)c(N3CCCC3)c2c1 the Potency was inconclusive: 29.1 µM [cytotoxic, single point]. With COc1ccc(OC)c(NC(=O)CCCN2C(=S)NC(C)(C)CC2C)c1 (centres undefined) the Potency was inconclusive: 20.6 µM [cytotoxic, single point]. In the case of O=C(NCc1cccnc1)C1CC2c3ccccc3C1c1ccccc12 (centres undefined), the Potency is reported as “inactive”. With O=C(CSc1ccc(-c2ccc(F)cc2)nn1)NC1CCCCC1 the Potency was inconclusive: 18.4 µM [cytotoxic, partial curve]. In the case of O=C(c1cccc(Br)c1)N1CCN(S(=O)(=O)N2CCCCC2)CC1, the Potency is reported as inconclusive: 29.1 µM [cytotoxic, single point]. In the case of Cc1ccc2cc3cc(C(=O)N4CCN(c5ccccc5)CC4)sc3nc2c1, the Potency is reported as inconclusive: 18.4 µM [rising, single point]. In the case of CN(C)S(=O)(=O)c1ccc(Cl)c(NC(=O)COC(=O)CCC(=O)c2cccs2)c1, the Potency is reported as inconclusive: 32.6 µM [rising, single point]. With Cc1ccc(C)c(NC(=O)CN(C)C(=O)c2ccc3[nH]c4c(c3c2)CC(C)CC4)c1 (centres undefined) the Potency was inconclusive: 14.6 µM [cytotoxic, partial curve].
